Common to all, as to assay: co-IP
Test [1] deals with T1, viperin (virus inhibitory protein, endoplasmic reticulum-associated, interferon-inducible) with N-terminal 3x-FLAG tag (human) (UniProt Q8WXG1).
T1 sequence: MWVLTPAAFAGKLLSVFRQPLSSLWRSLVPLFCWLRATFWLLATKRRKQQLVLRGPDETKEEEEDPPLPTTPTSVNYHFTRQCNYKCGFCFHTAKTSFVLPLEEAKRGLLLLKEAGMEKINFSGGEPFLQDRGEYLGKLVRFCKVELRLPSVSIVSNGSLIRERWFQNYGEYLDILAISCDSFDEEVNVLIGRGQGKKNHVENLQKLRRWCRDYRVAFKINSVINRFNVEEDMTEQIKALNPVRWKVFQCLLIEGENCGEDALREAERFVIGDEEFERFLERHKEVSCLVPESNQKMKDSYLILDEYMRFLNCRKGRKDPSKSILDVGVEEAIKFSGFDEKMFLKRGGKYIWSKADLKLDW

The chains behind the UniProt entries cited, without tags or fusion partners. Where a name states a change or a piece, a line headed by the entry shows the natural chain unless it says otherwise.
UniProt Q14534, whole entry: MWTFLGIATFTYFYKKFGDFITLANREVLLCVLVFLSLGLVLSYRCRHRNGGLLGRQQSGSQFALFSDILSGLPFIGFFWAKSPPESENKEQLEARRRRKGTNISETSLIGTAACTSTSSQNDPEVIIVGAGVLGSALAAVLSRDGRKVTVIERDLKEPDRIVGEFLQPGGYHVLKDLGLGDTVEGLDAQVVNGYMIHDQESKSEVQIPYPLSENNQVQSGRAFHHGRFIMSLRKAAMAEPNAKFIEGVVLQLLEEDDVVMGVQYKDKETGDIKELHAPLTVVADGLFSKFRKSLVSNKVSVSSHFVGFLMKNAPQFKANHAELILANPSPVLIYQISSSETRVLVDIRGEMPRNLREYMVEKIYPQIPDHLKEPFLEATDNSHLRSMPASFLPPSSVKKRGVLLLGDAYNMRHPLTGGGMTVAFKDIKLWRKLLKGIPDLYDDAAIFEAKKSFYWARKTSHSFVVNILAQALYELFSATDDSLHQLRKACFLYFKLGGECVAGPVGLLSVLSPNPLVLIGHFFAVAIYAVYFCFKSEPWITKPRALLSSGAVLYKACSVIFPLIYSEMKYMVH

Test [2] concerns the target T2, lanosterol synthase with C-terminal Myc tag (UniProt P48449).
T2 sequence: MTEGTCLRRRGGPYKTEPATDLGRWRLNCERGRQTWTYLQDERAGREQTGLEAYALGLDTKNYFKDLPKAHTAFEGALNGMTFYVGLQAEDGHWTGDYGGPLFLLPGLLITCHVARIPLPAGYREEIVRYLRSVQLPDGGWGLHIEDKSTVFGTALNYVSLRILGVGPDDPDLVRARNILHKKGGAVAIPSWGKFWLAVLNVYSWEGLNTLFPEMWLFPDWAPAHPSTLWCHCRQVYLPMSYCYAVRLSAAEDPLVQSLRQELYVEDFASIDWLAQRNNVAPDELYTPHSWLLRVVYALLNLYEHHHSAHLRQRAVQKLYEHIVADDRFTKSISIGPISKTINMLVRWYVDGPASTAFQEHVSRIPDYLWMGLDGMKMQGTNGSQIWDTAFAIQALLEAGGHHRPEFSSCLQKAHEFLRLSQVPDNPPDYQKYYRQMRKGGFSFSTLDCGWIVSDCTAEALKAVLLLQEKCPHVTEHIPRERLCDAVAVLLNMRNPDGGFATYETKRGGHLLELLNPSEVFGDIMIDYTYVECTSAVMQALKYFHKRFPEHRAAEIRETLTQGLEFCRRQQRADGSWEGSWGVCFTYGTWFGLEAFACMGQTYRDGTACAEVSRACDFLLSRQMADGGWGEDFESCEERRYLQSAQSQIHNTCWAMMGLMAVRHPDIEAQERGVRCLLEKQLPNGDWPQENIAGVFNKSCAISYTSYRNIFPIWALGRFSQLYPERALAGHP

Test [3] deals with T3, viperin-ΔN50 (truncated viperin lacking the N-terminal 50 residues) (human) (UniProt Q8WXG1).
T3 sequence: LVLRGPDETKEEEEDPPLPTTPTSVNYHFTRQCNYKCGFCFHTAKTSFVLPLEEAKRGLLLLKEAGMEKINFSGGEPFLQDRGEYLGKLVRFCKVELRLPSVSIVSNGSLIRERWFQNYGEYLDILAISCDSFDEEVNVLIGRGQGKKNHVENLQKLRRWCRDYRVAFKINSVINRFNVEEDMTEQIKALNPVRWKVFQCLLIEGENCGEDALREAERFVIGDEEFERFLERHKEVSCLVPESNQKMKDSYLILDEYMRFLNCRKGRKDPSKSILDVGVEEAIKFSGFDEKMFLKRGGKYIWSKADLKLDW

The target in test [4] is T1, viperin (virus inhibitory protein, endoplasmic reticulum-associated, interferon-inducible) with N-terminal 3x-FLAG tag (human). The source holds these as a separate data set.
Test [5] addresses T3, viperin-ΔN50 (truncated viperin lacking the N-terminal 50 residues) (human). This is another data set of the same source.
Test [6] deals with T2, lanosterol synthase with C-terminal Myc tag. The source holds these as a separate data set.

Read-outs that look alike come from different tables or passages of the source. These are yes or no findings as the source states them, for the method shown. In cells and extracts the contact can be indirect. Some results given as binding are weak or reduced against the parent protein; the word gives no strength. For part of these data: Sequences can lack the tags named with a protein.

As to “squalene monooxygenase with C-terminal V5 tag (from UniProt Q14534 1-574) (enzyme)”, the binding entry in test [1], in test [2] and in test [3] was “binds” each time.

B1: lanosterol synthase with C-terminal Myc tag (enzyme, UniProt P48449 1-732)
chain: MTEGTCLRRRGGPYKTEPATDLGRWRLNCERGRQTWTYLQDERAGREQTGLEAYALGLDTKNYFKDLPKAHTAFEGALNGMTFYVGLQAEDGHWTGDYGGPLFLLPGLLITCHVARIPLPAGYREEIVRYLRSVQLPDGGWGLHIEDKSTVFGTALNYVSLRILGVGPDDPDLVRARNILHKKGGAVAIPSWGKFWLAVLNVYSWEGLNTLFPEMWLFPDWAPAHPSTLWCHCRQVYLPMSYCYAVRLSAAEDPLVQSLRQELYVEDFASIDWLAQRNNVAPDELYTPHSWLLRVVYALLNLYEHHHSAHLRQRAVQKLYEHIVADDRFTKSISIGPISKTINMLVRWYVDGPASTAFQEHVSRIPDYLWMGLDGMKMQGTNGSQIWDTAFAIQALLEAGGHHRPEFSSCLQKAHEFLRLSQVPDNPPDYQKYYRQMRKGGFSFSTLDCGWIVSDCTAEALKAVLLLQEKCPHVTEHIPRERLCDAVAVLLNMRNPDGGFATYETKRGGHLLELLNPSEVFGDIMIDYTYVECTSAVMQALKYFHKRFPEHRAAEIRETLTQGLEFCRRQQRADGSWEGSWGVCFTYGTWFGLEAFACMGQTYRDGTACAEVSRACDFLLSRQMADGGWGEDFESCEERRYLQSAQSQIHNTCWAMMGLMAVRHPDIEAQERGVRCLLEKQLPNGDWPQENIAGVFNKSCAISYTSYRNIFPIWALGRFSQLYPERALAGHP
Turning to B1, the binding entry in test [4] and in test [5] was “binds” in each case.

B2: viperin (virus inhibitory protein, endoplasmic reticulum-associated, interferon-inducible) with N-terminal 3x-FLAG tag (enzyme, UniProt Q8WXG1 1-361)
chain: MWVLTPAAFAGKLLSVFRQPLSSLWRSLVPLFCWLRATFWLLATKRRKQQLVLRGPDETKEEEEDPPLPTTPTSVNYHFTRQCNYKCGFCFHTAKTSFVLPLEEAKRGLLLLKEAGMEKINFSGGEPFLQDRGEYLGKLVRFCKVELRLPSVSIVSNGSLIRERWFQNYGEYLDILAISCDSFDEEVNVLIGRGQGKKNHVENLQKLRRWCRDYRVAFKINSVINRFNVEEDMTEQIKALNPVRWKVFQCLLIEGENCGEDALREAERFVIGDEEFERFLERHKEVSCLVPESNQKMKDSYLILDEYMRFLNCRKGRKDPSKSILDVGVEEAIKFSGFDEKMFLKRGGKYIWSKADLKLDW
With B2, the binding result in test [6] is given as “binds”.
